Here are results for 3 substances from patent US20200216499A1 (WAKE FOREST UNIVERSITY HEALTH SCIENCES, priority 2015, published 2020).

This data set in a line: general procedure: Fmoc solid-phase peptide synthesis; proline pre-loaded 2CT resin; HATU/DIEA. The settings on record: whole synthesis.
As for H-Asp-Arg-ACCA-Tyr-Ile-His-Pro-OH, the isolated yield result was “yield = 63%”.
The value for H-Asp-Arg-Val-Tyr-Ile-ACCA-Pro-OH was “yield = 46%”; that for H-Asp-Arg-Val-Tyr-ACCA-His-Pro-OH was “yield = 64%”.
